From patent US20100055712A1, “Oligopeptides for treatment of osteoporosis and other bone diseases and methods therefor” (Washington University, priority 2008, published 2010)
No constants are given. Whether binding was seen depends on the method and setting. Some results given as binding are weak or reduced against the parent protein; the word gives no strength.

Sequences of proteins named here, by UniProt entry; tags and fusion partners are left off. Residues count along the entry.
UniProt Q07954, residues 20-4544: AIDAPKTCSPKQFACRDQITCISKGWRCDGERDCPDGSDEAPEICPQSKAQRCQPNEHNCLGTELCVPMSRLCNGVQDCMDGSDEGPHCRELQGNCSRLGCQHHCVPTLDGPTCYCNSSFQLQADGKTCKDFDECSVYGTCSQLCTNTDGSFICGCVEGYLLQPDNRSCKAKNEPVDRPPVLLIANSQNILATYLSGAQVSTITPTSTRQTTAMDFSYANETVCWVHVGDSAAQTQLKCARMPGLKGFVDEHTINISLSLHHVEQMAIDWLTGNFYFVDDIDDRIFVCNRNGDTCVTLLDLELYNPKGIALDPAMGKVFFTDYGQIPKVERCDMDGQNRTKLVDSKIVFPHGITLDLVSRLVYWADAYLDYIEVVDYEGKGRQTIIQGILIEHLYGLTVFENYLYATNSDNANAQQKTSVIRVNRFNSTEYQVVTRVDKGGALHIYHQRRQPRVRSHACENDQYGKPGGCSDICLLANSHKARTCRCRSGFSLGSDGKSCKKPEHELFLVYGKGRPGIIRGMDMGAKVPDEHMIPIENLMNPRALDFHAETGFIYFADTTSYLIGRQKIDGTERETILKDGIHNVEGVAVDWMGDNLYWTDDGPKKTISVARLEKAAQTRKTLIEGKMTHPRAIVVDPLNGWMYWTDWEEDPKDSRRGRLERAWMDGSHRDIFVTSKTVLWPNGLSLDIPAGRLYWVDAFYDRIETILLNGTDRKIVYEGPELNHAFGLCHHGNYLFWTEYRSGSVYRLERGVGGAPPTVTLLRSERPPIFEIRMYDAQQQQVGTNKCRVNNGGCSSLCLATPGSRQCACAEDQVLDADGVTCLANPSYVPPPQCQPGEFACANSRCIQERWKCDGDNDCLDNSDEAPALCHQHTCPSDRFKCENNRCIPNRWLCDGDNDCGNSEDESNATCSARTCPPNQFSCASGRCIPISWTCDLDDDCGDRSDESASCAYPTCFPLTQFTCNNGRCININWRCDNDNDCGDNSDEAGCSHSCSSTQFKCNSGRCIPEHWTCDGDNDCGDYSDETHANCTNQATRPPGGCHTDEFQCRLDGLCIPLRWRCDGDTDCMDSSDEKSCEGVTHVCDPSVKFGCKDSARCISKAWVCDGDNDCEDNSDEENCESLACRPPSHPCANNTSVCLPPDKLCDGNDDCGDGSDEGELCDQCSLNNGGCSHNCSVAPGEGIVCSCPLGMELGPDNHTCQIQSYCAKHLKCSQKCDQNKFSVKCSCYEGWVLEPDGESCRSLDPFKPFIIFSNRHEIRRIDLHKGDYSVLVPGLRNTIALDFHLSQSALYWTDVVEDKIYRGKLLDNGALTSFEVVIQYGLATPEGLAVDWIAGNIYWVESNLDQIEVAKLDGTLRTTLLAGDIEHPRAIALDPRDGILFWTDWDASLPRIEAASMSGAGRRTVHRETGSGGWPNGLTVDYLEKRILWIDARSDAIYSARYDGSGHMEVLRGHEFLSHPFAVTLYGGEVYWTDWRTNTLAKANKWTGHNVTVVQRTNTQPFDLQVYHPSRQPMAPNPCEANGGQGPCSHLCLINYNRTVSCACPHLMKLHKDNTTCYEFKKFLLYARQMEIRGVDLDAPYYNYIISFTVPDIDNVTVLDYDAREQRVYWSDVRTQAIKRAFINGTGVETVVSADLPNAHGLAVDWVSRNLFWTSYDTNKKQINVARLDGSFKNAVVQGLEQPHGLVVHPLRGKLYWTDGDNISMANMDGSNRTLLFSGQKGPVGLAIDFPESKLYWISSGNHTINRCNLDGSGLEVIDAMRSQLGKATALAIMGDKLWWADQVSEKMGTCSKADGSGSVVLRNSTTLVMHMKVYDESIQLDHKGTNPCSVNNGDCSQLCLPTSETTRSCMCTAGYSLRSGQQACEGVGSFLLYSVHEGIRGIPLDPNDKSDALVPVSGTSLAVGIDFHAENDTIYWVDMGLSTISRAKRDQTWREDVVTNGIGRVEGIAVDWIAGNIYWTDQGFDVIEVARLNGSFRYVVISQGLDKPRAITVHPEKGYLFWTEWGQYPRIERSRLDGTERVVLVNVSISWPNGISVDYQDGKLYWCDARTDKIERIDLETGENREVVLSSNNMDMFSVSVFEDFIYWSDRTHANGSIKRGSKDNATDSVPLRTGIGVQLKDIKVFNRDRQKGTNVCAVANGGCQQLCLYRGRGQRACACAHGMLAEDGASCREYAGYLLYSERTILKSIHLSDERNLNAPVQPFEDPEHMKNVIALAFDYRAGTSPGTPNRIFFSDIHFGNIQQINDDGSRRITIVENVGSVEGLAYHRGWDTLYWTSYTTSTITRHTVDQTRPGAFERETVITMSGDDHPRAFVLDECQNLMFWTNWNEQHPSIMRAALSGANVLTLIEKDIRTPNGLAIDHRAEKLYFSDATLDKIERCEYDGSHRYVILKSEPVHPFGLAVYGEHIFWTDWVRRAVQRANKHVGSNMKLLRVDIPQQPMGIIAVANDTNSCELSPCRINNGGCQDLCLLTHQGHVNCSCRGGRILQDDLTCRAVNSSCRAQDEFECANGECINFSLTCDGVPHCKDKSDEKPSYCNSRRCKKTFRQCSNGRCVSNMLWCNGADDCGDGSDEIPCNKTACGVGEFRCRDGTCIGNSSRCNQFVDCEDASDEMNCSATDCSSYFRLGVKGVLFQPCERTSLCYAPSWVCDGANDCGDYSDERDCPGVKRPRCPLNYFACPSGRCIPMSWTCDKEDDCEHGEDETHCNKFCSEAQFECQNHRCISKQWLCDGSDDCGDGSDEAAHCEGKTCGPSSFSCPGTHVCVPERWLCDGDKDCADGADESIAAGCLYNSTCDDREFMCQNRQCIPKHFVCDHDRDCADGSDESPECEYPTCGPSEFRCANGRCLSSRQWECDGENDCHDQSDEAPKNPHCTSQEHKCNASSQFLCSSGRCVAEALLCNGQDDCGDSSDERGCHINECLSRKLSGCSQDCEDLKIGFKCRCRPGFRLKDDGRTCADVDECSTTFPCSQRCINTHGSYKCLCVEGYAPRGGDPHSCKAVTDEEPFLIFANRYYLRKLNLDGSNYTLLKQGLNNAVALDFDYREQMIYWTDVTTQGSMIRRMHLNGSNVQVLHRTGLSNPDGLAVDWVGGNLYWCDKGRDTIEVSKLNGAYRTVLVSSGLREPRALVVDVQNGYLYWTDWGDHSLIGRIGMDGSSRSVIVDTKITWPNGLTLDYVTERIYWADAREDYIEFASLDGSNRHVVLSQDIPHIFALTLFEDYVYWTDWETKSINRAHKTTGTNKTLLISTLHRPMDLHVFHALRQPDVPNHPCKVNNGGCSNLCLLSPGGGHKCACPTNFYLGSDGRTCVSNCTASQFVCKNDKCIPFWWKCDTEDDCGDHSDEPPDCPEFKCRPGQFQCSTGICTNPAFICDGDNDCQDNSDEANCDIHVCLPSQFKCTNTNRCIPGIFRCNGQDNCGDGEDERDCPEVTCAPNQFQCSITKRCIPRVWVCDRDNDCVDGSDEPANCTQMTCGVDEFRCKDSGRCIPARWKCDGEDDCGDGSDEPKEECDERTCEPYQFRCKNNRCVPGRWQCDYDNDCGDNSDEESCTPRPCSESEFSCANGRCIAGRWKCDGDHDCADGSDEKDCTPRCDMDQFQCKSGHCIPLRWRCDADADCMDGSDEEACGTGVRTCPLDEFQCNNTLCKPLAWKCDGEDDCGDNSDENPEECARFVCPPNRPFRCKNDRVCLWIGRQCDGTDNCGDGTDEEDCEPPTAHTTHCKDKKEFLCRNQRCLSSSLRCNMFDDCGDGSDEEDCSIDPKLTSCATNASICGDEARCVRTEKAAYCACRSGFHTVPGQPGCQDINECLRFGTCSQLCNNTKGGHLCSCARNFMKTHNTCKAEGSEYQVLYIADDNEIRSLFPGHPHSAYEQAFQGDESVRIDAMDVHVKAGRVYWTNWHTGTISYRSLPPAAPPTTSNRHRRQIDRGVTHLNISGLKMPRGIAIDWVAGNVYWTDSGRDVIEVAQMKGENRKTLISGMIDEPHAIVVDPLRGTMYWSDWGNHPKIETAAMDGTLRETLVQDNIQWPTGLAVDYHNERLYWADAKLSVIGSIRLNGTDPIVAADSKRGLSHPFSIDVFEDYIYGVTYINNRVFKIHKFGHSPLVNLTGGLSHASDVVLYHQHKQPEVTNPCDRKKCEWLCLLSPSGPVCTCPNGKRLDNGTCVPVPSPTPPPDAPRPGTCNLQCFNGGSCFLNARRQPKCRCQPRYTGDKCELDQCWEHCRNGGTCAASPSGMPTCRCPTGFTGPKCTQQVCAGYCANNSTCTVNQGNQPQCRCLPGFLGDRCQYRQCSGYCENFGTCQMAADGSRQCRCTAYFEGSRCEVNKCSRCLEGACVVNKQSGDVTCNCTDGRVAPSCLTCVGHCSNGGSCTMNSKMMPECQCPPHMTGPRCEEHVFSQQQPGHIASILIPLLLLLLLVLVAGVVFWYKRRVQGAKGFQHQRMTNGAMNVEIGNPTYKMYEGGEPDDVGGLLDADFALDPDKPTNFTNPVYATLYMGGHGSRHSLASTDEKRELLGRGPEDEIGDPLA
UniProt P30533, residues 35-357: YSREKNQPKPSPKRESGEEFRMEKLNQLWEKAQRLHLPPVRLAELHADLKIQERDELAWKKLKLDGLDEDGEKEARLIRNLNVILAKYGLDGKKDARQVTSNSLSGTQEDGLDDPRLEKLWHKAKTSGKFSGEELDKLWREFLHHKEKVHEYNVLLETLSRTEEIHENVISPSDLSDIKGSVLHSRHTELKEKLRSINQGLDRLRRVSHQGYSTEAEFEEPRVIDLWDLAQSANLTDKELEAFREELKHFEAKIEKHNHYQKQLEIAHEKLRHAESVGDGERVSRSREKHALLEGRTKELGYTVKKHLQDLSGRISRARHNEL

Biological target: LRP1, endogenous, on U87 glioblastoma cells (UniProt Q07954)
Experiment: cell-associated fluorescence of labeled RAP on U87 cells, with or without LRP1 siRNA

binding: binds
Substance: Human recombinant Receptor-Associated Protein (RAP) labeled with Alexa Fluor488 (from UniProt P30533 35-357) (ligand)
